In patent publication US20090042865A1, “DNA-PK INHIBITORS” (priority 2007, published 2009):
Some of these results come from one statement about several compounds together.

Tested on: HeLa cells
Assay: Survival Enhancement Ratio, clonogenic survival assay after 2 Gray irradiation
Format: cell-based
Conditions: at 100 nM
Description: The Survival Enhancement Ratio (SER) is a ratio of the enhancement of cell kill elicited by the DNA-PK inhibitor after 2 Grays of irradiation compared to […]. DNA-PK inhibitors were used at a concentration of 25, 50, 100 and/or 500 nM. Radiation was delivered by a Faxitron 43855D machine at a dose rate of 1 Gy pre minute The SER at 2 Gray irradiation was calculated from the formula:
The degree of cell killing was monitored by a standard clonogenic survival assay. Briefly, tissue culture treated 6-well plates were seeded with HeLa cells at an appropriate concentration to give 100-200 colonies per well and returned to the incubator in order to allow the cells to attach. Four hours later, compound or vehicle control was added to the cells. The cells were then incubated for 1 hour in the presence of inhibitor prior to irradiation at 2 Gray using a Faxitron 43855D cabinet X-ray machine. The cells were then incubated for a further 16 hours before the media was replaced with fresh media in the absence of DNA-PK inhibitor. After 8 days, colonies formed were fixed and stained with Giemsa (Sigma, Poole, UK) and scored using an automated colony counter (Oxford Optronics Ltd, Oxford, UK). The data was calculated as described above.

CC(=O)C(C)N1CCN(c2ccc(-c3cccc4c(=O)cc(N5CCOCC5)oc34)c3sc4ccccc4c23)CC1 (stereo not shown) [Compound 2h]
SER (Survival Enhancement Ratio): ≥ 1.5
